The target in the test is C-terminally GFP-tagged pUL21 (pUL21-GFP), wild type (HSV-1 strain KOS) (UniProt F8RG07). The experiment in a line: affinity purification with mass spectrometry; SILAC-labelled HEK293T cells transfected with pUL21-GFP or GFP alone, lysed 24 h post-transfection (10 mM Tris pH 7.5, 150 mM NaCl, 0.5 mM EDTA, 0.5% NP-40), GFP-TRAP beads, quantitative mass spectrometry, three biological replicates.

Protein sequences, listed by entry. Tags and fused reporters are not part of them.
UniProt F8RG07: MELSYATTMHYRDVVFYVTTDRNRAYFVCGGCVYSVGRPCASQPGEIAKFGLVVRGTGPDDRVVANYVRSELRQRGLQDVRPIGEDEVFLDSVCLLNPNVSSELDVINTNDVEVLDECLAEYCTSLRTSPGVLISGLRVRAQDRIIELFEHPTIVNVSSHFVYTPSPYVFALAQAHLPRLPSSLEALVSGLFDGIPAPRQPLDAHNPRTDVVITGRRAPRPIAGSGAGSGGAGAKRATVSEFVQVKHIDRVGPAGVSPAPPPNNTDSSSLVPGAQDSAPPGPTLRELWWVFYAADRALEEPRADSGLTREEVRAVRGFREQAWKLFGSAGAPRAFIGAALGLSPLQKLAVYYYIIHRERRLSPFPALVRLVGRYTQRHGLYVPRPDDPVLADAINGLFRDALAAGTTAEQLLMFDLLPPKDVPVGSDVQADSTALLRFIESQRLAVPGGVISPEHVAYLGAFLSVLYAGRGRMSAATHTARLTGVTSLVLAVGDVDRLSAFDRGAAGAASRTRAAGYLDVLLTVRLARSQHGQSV

Results are given in words; binding and its absence hold for the method and conditions named. In cells and extracts the contact can be indirect. A yes stands for co-enrichment or nearness to the bait. Other partners may have been found.

B1: ceramide-transport protein CERT, endogenous (protein, UniProt Q9Y5P4 1-624)
chain: MSDNQSWNSSGSEEDPETESGPPVERCGVLSKWTNYIHGWQDRWVVLKNNALSYYKSEDETEYGCRGSICLSKAVITPHDFDECRFDISVNDSVWYLRAQDPDHRQQWIDAIEQHKTESGYGSESSLRRHGSMVSLVSGASGYSATSTSSFKKGHSLREKLAEMETFRDILCRQVDTLQKYFDACADAVSKDELQRDKVVEDDEDDFPTTRSDGDFLHSTNGNKEKLFPHVTPKGINGIDFKGEAITFKATTAGILATLSHCIELMVKREDSWQKRLDKETEKKRRTEEAYKNAMTELKKKSHFGGPDYEEGPNSLINEEEFFDAVEAALDRQDKIEEQSQSEKVRLHWPTSLPSGDAFSSVGTHRFVQKPYSRSSSMSSIDLVSASDDVHRFSSQVEEMVQNHMTYSLQDVGGDANWQLVVEEGEMKVYRREVEENGIVLDPLKATHAVKGVTGHEVCNYFWNVDVRNDWETTIENFHVVETLADNAIIIYQTHKRVWPASQRDVLYLSVIRKIPALTENDPETWIVCNFSVDHDSAPLNNRCVRAKINVAMICQTLVSPPEGNQEISRDNILCKITYVANVNPGGWAPASVLRAVAKREYPKFLKRFTSYVQEKTAGKPILF
Turning to B1, the binding result is “binds”.

The values above are taken from article PMC8389370.
